# Some of the results follow.
# Protein sequences, listed by entry. Tags and fused reporters are not part of them. Lines headed by an entry give the natural chain unless they say otherwise; changes in a name come on top.
# UniProt Q9GZR1: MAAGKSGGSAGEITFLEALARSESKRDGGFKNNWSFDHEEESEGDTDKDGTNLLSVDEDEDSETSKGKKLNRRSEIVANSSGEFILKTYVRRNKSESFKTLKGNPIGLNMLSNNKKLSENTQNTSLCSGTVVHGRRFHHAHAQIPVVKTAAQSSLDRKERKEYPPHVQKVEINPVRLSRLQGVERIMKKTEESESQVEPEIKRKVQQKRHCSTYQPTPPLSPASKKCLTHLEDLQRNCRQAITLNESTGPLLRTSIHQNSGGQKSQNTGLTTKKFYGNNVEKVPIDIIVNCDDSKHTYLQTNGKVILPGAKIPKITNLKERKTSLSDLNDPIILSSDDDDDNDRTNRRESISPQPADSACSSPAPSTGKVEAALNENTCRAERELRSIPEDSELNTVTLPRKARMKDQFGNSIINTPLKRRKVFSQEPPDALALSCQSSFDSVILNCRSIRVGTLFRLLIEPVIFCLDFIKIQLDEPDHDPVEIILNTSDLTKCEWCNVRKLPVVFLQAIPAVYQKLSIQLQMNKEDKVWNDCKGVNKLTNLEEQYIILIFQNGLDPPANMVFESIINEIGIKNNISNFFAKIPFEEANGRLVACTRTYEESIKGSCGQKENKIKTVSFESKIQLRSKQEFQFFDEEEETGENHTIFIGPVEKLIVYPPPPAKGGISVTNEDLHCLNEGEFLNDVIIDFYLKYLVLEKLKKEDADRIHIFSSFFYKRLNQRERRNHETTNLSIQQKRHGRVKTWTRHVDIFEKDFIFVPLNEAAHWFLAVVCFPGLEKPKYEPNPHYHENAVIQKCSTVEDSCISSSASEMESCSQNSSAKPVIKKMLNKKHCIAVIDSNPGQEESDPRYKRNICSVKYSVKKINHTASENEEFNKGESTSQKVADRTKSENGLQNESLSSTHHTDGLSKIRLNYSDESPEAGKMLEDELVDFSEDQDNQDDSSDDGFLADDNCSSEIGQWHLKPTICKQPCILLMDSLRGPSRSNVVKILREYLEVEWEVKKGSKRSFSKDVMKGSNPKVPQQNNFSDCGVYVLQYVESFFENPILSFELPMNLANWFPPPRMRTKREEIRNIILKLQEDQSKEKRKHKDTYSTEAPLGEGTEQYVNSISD
# UniProt Q99590: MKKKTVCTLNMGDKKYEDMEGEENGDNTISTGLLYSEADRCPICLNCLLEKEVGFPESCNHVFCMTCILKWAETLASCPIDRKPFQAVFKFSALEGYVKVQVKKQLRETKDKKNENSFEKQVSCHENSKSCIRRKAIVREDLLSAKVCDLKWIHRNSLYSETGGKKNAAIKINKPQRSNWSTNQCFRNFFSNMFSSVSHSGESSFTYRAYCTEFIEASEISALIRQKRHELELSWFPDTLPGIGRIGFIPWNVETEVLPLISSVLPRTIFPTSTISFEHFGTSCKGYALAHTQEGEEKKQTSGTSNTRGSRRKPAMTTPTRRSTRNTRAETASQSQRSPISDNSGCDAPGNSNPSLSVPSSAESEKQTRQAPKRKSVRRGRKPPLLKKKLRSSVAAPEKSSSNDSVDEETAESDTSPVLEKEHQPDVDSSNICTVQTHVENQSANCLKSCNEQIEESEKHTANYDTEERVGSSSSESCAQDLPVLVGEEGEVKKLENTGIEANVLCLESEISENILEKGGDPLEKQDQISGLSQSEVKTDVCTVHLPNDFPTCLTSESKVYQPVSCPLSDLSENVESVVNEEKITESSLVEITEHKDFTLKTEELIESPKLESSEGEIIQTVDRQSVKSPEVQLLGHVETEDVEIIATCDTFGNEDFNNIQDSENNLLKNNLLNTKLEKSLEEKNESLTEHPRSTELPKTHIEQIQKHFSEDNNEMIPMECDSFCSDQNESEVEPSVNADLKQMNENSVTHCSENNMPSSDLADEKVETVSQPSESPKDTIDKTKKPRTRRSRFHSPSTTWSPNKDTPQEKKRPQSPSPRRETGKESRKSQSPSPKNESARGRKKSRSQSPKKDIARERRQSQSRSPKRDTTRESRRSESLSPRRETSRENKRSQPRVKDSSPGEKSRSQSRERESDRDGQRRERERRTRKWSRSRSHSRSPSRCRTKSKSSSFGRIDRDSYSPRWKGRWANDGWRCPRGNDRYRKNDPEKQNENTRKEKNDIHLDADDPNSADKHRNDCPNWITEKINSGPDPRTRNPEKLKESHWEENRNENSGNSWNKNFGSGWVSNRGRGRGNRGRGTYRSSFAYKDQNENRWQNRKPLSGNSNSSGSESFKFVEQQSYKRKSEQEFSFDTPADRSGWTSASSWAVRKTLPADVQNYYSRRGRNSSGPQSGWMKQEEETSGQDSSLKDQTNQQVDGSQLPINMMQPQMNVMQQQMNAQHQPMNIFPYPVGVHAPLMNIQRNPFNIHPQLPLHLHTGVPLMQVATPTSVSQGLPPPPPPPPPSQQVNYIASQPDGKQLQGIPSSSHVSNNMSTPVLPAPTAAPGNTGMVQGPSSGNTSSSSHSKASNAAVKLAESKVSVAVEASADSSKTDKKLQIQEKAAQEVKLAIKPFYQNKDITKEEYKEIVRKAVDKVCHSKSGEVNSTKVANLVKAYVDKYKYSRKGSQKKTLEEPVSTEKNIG
# UniProt Q9Y3A5: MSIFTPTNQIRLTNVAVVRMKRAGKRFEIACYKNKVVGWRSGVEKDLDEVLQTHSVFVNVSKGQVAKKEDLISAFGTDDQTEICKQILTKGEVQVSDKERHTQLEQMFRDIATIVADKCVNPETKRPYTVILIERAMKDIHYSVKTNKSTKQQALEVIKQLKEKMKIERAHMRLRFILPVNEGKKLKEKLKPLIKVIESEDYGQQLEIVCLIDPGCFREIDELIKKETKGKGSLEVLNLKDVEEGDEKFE
# UniProt P22307: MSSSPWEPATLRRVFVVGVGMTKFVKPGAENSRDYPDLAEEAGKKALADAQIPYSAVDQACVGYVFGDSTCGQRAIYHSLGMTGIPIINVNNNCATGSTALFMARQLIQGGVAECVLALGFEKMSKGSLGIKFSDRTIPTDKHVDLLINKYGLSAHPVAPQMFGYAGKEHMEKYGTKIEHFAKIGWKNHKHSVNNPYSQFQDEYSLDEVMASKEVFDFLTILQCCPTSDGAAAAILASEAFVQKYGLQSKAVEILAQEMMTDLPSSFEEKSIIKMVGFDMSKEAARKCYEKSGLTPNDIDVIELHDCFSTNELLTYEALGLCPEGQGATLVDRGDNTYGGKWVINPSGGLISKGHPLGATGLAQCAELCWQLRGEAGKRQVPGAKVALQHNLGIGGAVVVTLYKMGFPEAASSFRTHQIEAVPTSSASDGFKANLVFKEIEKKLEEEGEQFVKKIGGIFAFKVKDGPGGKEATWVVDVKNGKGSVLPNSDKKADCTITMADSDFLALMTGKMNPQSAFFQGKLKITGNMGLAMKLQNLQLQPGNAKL
# UniProt Q9Y512: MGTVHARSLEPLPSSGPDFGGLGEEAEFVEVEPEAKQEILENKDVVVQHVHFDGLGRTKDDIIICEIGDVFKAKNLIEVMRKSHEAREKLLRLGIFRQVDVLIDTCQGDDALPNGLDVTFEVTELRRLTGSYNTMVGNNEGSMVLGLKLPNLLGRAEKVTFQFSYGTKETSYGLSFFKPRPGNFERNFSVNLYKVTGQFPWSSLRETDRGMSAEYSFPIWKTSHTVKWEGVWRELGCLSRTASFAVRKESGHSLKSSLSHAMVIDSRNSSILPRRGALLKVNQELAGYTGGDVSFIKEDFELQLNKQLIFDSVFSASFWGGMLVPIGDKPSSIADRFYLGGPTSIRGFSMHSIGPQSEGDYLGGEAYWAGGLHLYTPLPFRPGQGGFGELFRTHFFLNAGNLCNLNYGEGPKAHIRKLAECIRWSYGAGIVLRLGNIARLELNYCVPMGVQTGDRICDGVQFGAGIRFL
# UniProt Q96EE3: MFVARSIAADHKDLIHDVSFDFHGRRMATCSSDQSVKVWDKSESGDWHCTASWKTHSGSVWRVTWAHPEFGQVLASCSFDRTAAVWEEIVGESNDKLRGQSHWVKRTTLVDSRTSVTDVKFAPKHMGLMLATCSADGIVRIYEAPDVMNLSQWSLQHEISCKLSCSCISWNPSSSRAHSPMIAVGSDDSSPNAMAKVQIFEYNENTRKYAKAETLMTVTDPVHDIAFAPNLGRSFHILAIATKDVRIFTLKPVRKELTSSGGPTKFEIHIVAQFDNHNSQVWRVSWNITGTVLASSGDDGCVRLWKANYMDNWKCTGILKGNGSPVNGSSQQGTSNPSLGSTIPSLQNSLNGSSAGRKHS
# UniProt Q8WVM8, whole entry, looked up: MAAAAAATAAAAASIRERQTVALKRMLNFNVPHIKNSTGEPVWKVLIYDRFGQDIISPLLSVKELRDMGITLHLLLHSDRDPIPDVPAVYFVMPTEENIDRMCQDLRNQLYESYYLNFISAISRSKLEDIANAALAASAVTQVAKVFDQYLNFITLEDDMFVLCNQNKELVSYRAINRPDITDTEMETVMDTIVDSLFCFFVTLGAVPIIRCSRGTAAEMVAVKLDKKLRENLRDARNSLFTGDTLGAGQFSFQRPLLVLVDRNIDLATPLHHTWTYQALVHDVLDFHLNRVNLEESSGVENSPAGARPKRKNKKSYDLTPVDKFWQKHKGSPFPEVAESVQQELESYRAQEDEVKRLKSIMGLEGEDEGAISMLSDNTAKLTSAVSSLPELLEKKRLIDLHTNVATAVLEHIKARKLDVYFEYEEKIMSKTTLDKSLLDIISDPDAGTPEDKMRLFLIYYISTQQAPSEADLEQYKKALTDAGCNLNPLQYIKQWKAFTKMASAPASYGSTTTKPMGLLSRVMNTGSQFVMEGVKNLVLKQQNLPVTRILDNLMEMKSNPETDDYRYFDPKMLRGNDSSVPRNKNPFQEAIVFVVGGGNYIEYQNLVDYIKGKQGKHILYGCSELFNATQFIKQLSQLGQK
# UniProt Q15020: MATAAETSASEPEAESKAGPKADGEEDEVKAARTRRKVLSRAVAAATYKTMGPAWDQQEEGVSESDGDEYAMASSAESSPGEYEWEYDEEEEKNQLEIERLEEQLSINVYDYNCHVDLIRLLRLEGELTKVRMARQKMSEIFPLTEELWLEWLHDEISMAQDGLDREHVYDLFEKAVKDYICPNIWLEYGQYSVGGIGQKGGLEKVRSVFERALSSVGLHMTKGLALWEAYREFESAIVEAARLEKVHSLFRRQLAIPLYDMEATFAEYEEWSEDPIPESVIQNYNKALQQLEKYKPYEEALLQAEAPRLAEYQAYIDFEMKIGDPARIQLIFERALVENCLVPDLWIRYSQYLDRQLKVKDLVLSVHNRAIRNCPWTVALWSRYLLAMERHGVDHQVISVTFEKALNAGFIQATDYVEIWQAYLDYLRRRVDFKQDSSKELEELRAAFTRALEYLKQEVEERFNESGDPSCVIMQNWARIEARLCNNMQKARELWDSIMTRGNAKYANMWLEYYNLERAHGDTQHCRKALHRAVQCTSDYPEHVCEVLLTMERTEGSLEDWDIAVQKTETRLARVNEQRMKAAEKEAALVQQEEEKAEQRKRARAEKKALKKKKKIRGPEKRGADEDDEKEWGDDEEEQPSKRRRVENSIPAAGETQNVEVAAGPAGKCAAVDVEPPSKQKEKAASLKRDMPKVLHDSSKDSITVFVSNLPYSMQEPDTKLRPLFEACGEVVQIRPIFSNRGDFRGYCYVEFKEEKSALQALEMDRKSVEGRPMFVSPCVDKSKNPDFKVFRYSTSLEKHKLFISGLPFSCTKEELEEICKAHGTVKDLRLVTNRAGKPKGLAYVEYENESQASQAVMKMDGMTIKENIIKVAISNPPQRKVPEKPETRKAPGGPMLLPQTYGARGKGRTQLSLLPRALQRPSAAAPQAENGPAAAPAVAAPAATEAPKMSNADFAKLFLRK
# UniProt Q8NBX0: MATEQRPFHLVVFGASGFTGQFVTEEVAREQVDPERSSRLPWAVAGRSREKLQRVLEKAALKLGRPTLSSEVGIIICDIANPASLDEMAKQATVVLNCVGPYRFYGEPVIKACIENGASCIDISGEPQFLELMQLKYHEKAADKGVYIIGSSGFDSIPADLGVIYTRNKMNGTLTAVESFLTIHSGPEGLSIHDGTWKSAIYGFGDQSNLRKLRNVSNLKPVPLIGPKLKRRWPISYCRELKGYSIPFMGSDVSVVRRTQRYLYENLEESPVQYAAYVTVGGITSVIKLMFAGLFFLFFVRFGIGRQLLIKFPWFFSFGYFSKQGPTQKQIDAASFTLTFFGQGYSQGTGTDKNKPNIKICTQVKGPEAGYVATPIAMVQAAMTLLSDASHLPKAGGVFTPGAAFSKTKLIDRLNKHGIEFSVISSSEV
# UniProt Q9HCN8: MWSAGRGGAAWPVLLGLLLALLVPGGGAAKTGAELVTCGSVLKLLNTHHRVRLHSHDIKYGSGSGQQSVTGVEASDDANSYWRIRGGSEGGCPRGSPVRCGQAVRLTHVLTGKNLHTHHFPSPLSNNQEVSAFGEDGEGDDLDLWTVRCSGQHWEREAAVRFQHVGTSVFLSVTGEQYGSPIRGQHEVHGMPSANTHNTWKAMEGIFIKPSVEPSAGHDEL
# Compound: CC1Cc2ccccc2N1C(=O)C1CCCN(C1)C(=O)CCl (mixture of isomers) [TRIM25 ligand 11 (diastereomer mixture)]
# Assay: probe-labelled cysteine peptide fold change vs DMSO (competition) (log2 fold change); higher = less target engagement (more negative = stronger competition)
# Conditions: THP-1, incubation time: 4 h
# 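Further: competitive chemoproteomic profiling in live THP-1 cells with an iodoacetamide desthiobiotin (IA-DTB) probe, comparing probe-labelled peptide intensities in compound-treated cells against DMSO-treated controls.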
Target,probe-labelled cysteine peptide fold change (10 µM),probe-labelled cysteine peptide fold change (50 µM)
SDK1_Q7Z5N4_126_LVLTCLAEGSWPLEFK (UniProt Q7Z5N4),0.167,0.115
SATB1_Q01826_78_GTMLPVFCVVEHYENAIEYDCKEEHAEFVLVR (UniProt Q01826),-0.0745,0.0094
SENP6_Q9GZR1_972_QPCILLMDSLR (UniProt Q9GZR1),-0.191,0.123
SEC24C_P53992_910_LLPVYLNCVLK (UniProt P53992),-0.0462,-0.0543
SDHA_P31040_438_HVNGQDQIVPGLYACGEAACASVHGANR (UniProt P31040),0.121,-0.0746
SEMA4A_Q9H3S1_514_DPHCAWDPESR (UniProt Q9H3S1),0.171,0.42
SCAF11_Q99590_506_KLENTGIEANVLCLESEISENILEK (UniProt Q99590),-0.132,-0.338
SCYL1_Q96KG9_309_SLDAFPEDFCR (UniProt Q96KG9),-0.151,-0.00911
SATB1_Q01826_209_ECPLSQSMISSIVNSTYYANVSAAK (UniProt Q01826),0.0445,-0.102
SAMSN1_Q9NSI8_165_LDDDGPYSGPFCGR (UniProt Q9NSI8),0.178,0.239
SAR1B_Q9Y6B6_178_ELNARPLEVFMCSVLK (UniProt Q9Y6B6),-0.0793,-0.0345
SCAF4_O95104_506_GLPQVKPETASVCSTTLWVGQLDKR (UniProt O95104),-0.0494,-0.0244
SBDS_Q9Y3A5_119_CVNPETK (UniProt Q9Y3A5),0.0835,0.193
SCFD2_Q8WU76_54_LLEAVGGPDCHLR (UniProt Q8WU76),0.23,0.0601
SCP2_P22307_115_QLIQGGVAECVLALGFEK (UniProt P22307),-2.21,-2.14
SAMM50_Q9Y512_457_ICDGVQFGAGIR (UniProt Q9Y512),0.0158,0.0232
SEH1L_Q96EE3_133_HMGLMLATCSADGIVR (UniProt Q96EE3),-0.0651,0.223
SENP6_Q9GZR1_127_KLSENTQNTSLCSGTVVHGR (UniProt Q9GZR1),-0.0216,-0.0121
SCRN1_Q12765_54_VECTYISIDQVPR (UniProt Q12765),0.144,0.0568

Target,probe-labelled cysteine peptide fold change (10 µM),probe-labelled cysteine peptide fold change (50 µM)
SCFD1_Q8WVM8_623_HILYGCSELFNATQFIK (UniProt Q8WVM8),0.017,-0.00461
SAP130_Q9H0E3_951_VHLCAAQLLQLTNLEHDVYER (UniProt Q9H0E3),-0.122,-0.135
SART3_Q15020_729_LRPLFEACGEVVQIRPIFSNR (UniProt Q15020),0.0139,0.0102
SCCPDH_Q8NBX0_98_QATVVLNCVGPYR (UniProt Q8NBX0),0.0302,0.137
SATB1_Q01826_173_IQLHSCPK (UniProt Q01826),0.0227,0.0244
SART3_Q15020_114_NQLEIERLEEQLSINVYDYNCHVDLIR (UniProt Q15020),-0.0694,0.123
SDHB_P21912_243_CHTIMNCTR (UniProt P21912),-0.0481,-0.057
SCAF11_Q99590_1020_HRNDCPNWITEK (UniProt Q99590),-0.0927,-0.0868
SEC23B_Q15437_346_TAANGHCIDIYACALDQTGLLEMK (UniProt Q15437),-0.04,0.0198
SEL1L_Q9UBV2_141_EYDECTSDGR (UniProt Q9UBV2),0.0461,0.103
SDCCAG8_Q86SQ7_361_ALIQCDQLR (UniProt Q86SQ7),0.0721,-0.00568
SAMHD1_Q9Y3Z3_320_DCHHLGIQNNFDYKR (UniProt Q9Y3Z3),-0.0928,-0.0432
SDF2L1_Q9HCN8_38_TGAELVTCGSVLK (UniProt Q9HCN8),-0.04,-0.128
SATB1_Q01826_529_SQGWLCELLR (UniProt Q01826),-0.148,-0.147
SEH1L_Q96EE3_30_MATCSSDQSVK (UniProt Q96EE3),0.0276,0.0137
SEC23IP_Q9Y6Y8_457_GIDDNLDEIPDGEMPQVDHLVFVVHGIGPVCDLR (UniProt Q9Y6Y8),-0.0245,-0.00477
SEC24D_O94855_573_AADCPGK (UniProt O94855),-0.028,0.0681
SCARB2_Q14108_274_DEVLYVFPSDFCR (UniProt Q14108),-0.0336,-0.11
SEC63_Q9UGP8_671_EQTLISMPYHVCTLK (UniProt Q9UGP8),0.245,0.139

# Source: the supplement of paper PMC12067093, “Discovery and optimisation of a covalent ligand for TRIM25 and its application to targeted protein ubiquitination” (Chemical Science, 2025)
